Primary screen of a compound library

Data taken from ChEMBL document CHEMBL3988442, “University of Dundee, Small-Polar-MMV Screening Library” (2021).

Each number is a percent effect as filed. How 0% and 100% were set is not recorded. Most values in the screen are low, and negative values occur. Compounds were drawn at random from those tested, without regard to their results. Two or more numbers in one place are separate tests of the same structure; such repeats can differ widely.

A: 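Phenotypic screen: M. tuberculosis growth, cholesterol and DPPC medium, 4 days; the read-out is not stated. Compounds at 50 µM. Higher reads as more growth inhibition (inferred: compounds with an IC50 in retests scored well above the rest). Size under these conditions: about 69,000 compounds, about 370 of them at 50% or above in at least one test.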
B: 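Growth of Mycobacterium tuberculosis over 3 days (7H9 medium with glucose and tyloxapol); the read-out is not stated. Concentration: 50 µM. Direction is inferred from retests: higher values go with more growth inhibition. Of about 69,000 compounds tested this way, about 760 (1.1%) reached 50% or more in at least one test.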

Compound,A,B
CCCS(=O)(=O)NCCc1ncc(CC)s1,5.089,8.211
Cc1nc(C)n(CC2CCCN2Cc2cnc(C)s2)n1 (stereo unspecified),3.96,-10.97
O=C(CCNc1ncccn1)NCCc1ccn(-c2ccccc2)n1,-11.88,-25.87
Fc1cnc(N2CC[C@@H](N3CCOCC3)[C@@H]2Cc2ccccc2)nc1,2.884,-5.81 and -4.584
O=C(O)C(F)(F)F.[H][C@]12CCN(C(=O)Cc3ccc(OC)cc3)CC[C@@]1([H])S(=O)(=O)CCN2C,-6.429 and -5.582,-18.27 and -1.506
O=C(O)C(F)(F)F.[H][C@@]12CCCO[C@]1([H])[C@H](N(C)Cc1ccco1)CN2C(=O)c1ccnnc1,2.152,-4.779
CCn1cnnc1CNC(=O)NCC(O)c1ccc(OC)cc1 (stereo unspecified),-1.568 and 2.081,9.792
Cc1noc(-c2ccc(N3CCCC(C(=O)O)C3)nc2)n1 (stereo unspecified),14.71 and -7.16,8.971
CCOCC1CN(Cc2ccccn2)Cc2nn(CC3CC3)cc21.O=C(O)C(F)(F)F.O=C(O)C(F)(F)F (stereo unspecified),0.69,25.56
CC(C)n1nc(CN(C)C)c2c1CN(C(=O)CC1CC1)CC2.O=C(O)C(F)(F)F,3.967,-0.04431 and 1.079
CCNC(=O)CN(CC)C(=O)c1cc(-c2cccc(Cl)c2)no1,-6.54,0.804 and 6.851
CCn1cc(CN2CCc3nc(N4CCOCC4)nc(O)c3CC2)cn1,-11.18,3.616
COCCNC(=O)CN(C)C(C)c1nc(C)no1 (stereo unspecified),5.738,27.97
O=C(c1cc(=O)[nH]c(=O)[nH]1)N1CCCCC1c1nc2cc(F)ccc2[nH]1 (stereo unspecified),-21.78,0.6686 and -1.072
CCN(Cc1ccc2c(c1)OCCO2)C(=O)NC(C)Cn1ccnc1 (stereo unspecified),-17.12,-13.45
O=C(CNCCn1cccn1)NCC1(c2ccccc2)CCCC1,-12.44,-2.945
CC(C)c1nccn1C(C)C(=O)N1CCN(S(C)(=O)=O)CC1 (stereo unspecified),-13.04,-9.627 and -3.642
Cn1cc(CN2CCC(F)(F)C3(CCN(c4cnccn4)C3)C2)cn1.O=C(O)C(F)(F)F.O=C(O)C(F)(F)F (stereo unspecified),19.04 and 111.4,22.37
CCOCC1CN(S(=O)(=O)c2cccc(C)c2)Cc2nccn2C1 (stereo unspecified),-26,-2.959
COC(=O)NCc1cc2n(n1)CCCN(C(C)=O)C2,1.086,-12.56
O=C(Cn1ccc2ccccc21)N1CCC(Oc2ncccc2Br)CC1,18.87,17.39 and 30.23
O=C1CCCCN1c1cccc(CNC2CCCC2)c1,-7.177,-1.095
CNS(=O)(=O)c1ccc(CNC(=O)NCC2CCCO2)cc1 (stereo unspecified),-9.444,0.3308
[H][C@@]12OCCN(C(=O)c3ccc(C)o3)[C@@]1([H])CC[C@H]2OCC,-2.711,26.83 and 10.97
CC(C)CCc1noc(CN2CCCN(C(=O)c3ccco3)CC2)n1,-1.074,23.99
CC(C)Nc1nc(-c2ccccc2)nc2c1CCN(C(=O)C1CC1)CC2.O=C(O)C(F)(F)F,-0.3076,4.512
COc1ccc(NC(=O)CNc2cccc3c2CCCC3)c(OC)c1,-24.18,-2.776
COc1ncccc1NC(=O)NC1CCOc2ccccc21 (stereo unspecified),9.573,5.882
COCCN1CCOCC12CCN(C(=O)c1ccncc1)CC2.O=C(O)C(F)(F)F,0.9597,23.44
CC(C)c1nn(C)cc1CNCc1cccc(N(C)C)c1,-15.66,7.363
COc1nn(C)cc1C(=O)N1CCC(c2nnc(C(C)C)o2)CC1,6.478,13.32
CC(C)C(C(=O)N1CCC(N(C)c2cccnn2)CC1)n1cncn1 (stereo unspecified),11.51,49.39
CC(C)OCCCNC(=O)CC1(Cn2cnnn2)CCCCC1,-15.72,12.22
COc1cnc(N2C[C@@H](CN3CCOCC3)C[C@H](CO)C2)nc1,10.79,2.867
COc1ccc(C)c2c1N(C(=O)c1cnc(C)s1)CCC2,23.17,34.54
Cc1cnc2n(c1=O)C(CC(=O)NCc1cccnc1)CS2 (stereo unspecified),-24.54,-14.4
CCn1cc(NC(=O)NCC(O)COc2ccccc2)cn1 (stereo unspecified),7.964,-15.91
Cc1cccc2c(CCNC(=O)NCC[S+](C)[O-])c[nH]c12 (stereo unspecified),-6.046 and -10.28,-3.549 and -13.23
O=C(c1ccccc1N1CCOCC1)N1CCCC(n2cccn2)C1 (stereo unspecified),18.25,16.04
CN(C)CCN1CCC(NC2CSCCc3ccccc32)CC1 (stereo unspecified),1.82,12.59
N#Cc1ccc(CN2CCCCC2Cn2cncn2)cc1 (stereo unspecified),-15.87,-37.97
COc1cnc(CSc2nnc(C)s2)cc1OCC(=O)NC(C)(C)C,-1.864,10.82
Cc1cccc(C(=O)Nc2c(C(N)=O)n[nH]c2C)c1C,4.888,-19.54
CC(=O)NCc1ccc(C(=O)N2CCCc3c(F)ccc(C)c32)o1,15.79,10.28 and 2.994
CSc1ccc2c(C)cc(N[C@@H](C)CO)nc2c1,6.502,-27.13
O=S(=O)(c1c(N2CCCC2)ccc2nonc12)N1CCCC1,-0.8999,2.548
CCOC(=O)C(C)NC(=O)N1CCN(c2nc3ccccc3n2C)CC1 (stereo unspecified),-5.27,-5.701
Cc1nc(CN2CCCn3cnc(COC(C)C)c3C2)cs1.O=C(O)C(F)(F)F,-14.57,-2.325
Clc1ccccc1C1(c2ccnc(C3CCCC3)n2)CCNCC1,5.772,58.05
Cc1n[nH]c(SCC(=O)NC(c2ccccn2)C(C)C)n1 (stereo unspecified),-3.806,28.98
[H][C@@]12CCN(C[C@@H]1CN1CCOCC1)[C@@H](CNS(=O)(=O)c1ccccc1)C2,11.56,-27.67 and 2.498
O=C(CN1CCS(=O)(=O)CC1)NC1CCOc2ccccc21 (stereo unspecified),-9.738,14.59
Cc1nc(C)n(CC2CCCN(CC(=O)Nc3nncs3)C2)n1 (stereo unspecified),-5.726,-5.039
Cc1ccc(C2CCCN(S(C)(=O)=O)C2)nc1 (stereo unspecified),-9.16 and -9.336,-1.599
COCCNC(=O)N1CCN(c2cc(F)ccc2F)CC1,21.42,22.78
Cc1nc(CN2CCn3cc(CNC(=O)C4CCC4)nc3C2)cs1.O=C(O)C(F)(F)F,-23.75,-35.01
NCC1CCC2(CCN(C(=O)c3ccccn3)CC2)CO1.O=C(O)C(F)(F)F.O=C(O)C(F)(F)F (stereo unspecified),13.94,14.44
O=C(O)C(F)(F)F.[H][C@]12C[C@@H](C(=O)NC)CO[C@@]1([H])CCN(c1ncc(F)cn1)C2,-4.039,-22.65
[H][C@]12CC[C@]([H])(CN(C(=O)c3cnccn3)C1)N(S(=O)(=O)c1cccnc1)C2,-8.138,-25.8
CCc1ccc2nc(-c3cnn(C)c3)cc(C(=O)N3CCCC3)c2c1,0.3818,6.554